This note sets out measurements from the supplement of paper PMC4604168 (melanoma cell lines).

Molecules are shown by their SMILES. The list shows a part of the results. Many values rest on one well or one pass, so single values are uncertain.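 The apoptosis fraction was the count of cleaved-PARP antibody-stained nuclei relative to all DNA-stained nuclei, imaged in 1,536-well plates. Screening doses were set so most cells survived, and baseline and induced cleaved-PARP levels vary greatly across cell lines.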

The subject of the test is A2058. The test can be described thus: cleaved PARP positive nuclei fraction relative to DMSO control; melanoma cells; higher = more apoptosis. The note with it: library dose: low library concentration; 72 h.
Take `O=C(O)[C@@H]1[O][Sb](=[O])([O][Sb]2(=[O])[O][C@H]([C@H](O)CO)[C@H](O)[C@H](C(=O)O)[O]2)[O][C@H]([C@H](O)CO)[C@@H]1O` (some centres not stated) [stibogluconate] + OCc1c[nH]c2ccccc12 [Indole-3-carbinol] (first compound 2 µM, partner dose 0.8 µM): the “cleaved PARP positive nuclei fraction” value was 51.3%.

Regarding `C=C(c1ccc(C(=O)O)cc1)c1cc2c(cc1C)C(C)(C)CCC2(C)C` [Bexarotene] + Cn1nnc2c(C(N)=O)ncn2c1=O [temozolomide] (first compound 2 µM, partner dose 2 µM), the “cleaved PARP positive nuclei fraction” value was found to be 107%.

Consider `Nc1ncn([C@H]2C[C@H](O)[C@@H](CO)O2)c(=O)n1` [decitabine] + C[C@]1(c2nc3c(C(N)=O)cccc3[nH]2)CCCN1 [Veliparib] (first compound 0.1 µM, partner dose 1.4 µM), for which the “cleaved PARP positive nuclei fraction” value was found to be 188%.

For `CN1CCN(c2ccc3nc(-c4c(N)c5c(F)cccc5[nH]c4=O)[nH]c3c2)CC1` [Dovitinib] + Nc1nc(F)nc2c1ncn2[C@@H]1O[C@H](CO)[C@@H](O)[C@@H]1O [fludarabine] (first compound 0.1 µM, partner dose 0.2 µM), the “cleaved PARP positive nuclei fraction” value was determined as 194%.

Regarding `CO[C@H]1C[C@@H]2CC[C@@H](C)[C@@](O)(O2)C(=O)C(=O)N2CCCC[C@H]2C(=O)O[C@H]([C@H](C)C[C@@H]2CC[C@@H](OCCO)[C@H](OC)C2)CC(=O)[C@H](C)/C=C(\C)[C@@H](O)[C@@H](OC)C(=O)[C@H](C)C[C@H](C)/C=C/C=C/C=C/1C` [everolimus] + Clc1ccc(Nc2nnc(Cc3ccncc3)c3ccccc23)cc1 [vatalanib] (first compound 0.02 µM, partner dose 2 µM), the “cleaved PARP positive nuclei fraction” value was found to be 102%.

Regarding `CO[C@H]1C[C@@H]2CC[C@@H](C)[C@@](O)(O2)C(=O)C(=O)N2CCCC[C@H]2C(=O)O[C@H]([C@H](C)C[C@@H]2CC[C@@H](OCCO)[C@H](OC)C2)CC(=O)[C@H](C)/C=C(\C)[C@@H](O)[C@@H](OC)C(=O)[C@H](C)C[C@H](C)/C=C/C=C/C=C/1C` [everolimus] + C#Cc1cccc(Nc2ncnc3cc(OCCOC)c(OCCOC)cc23)c1 [erlotinib] (first compound 0.02 µM, partner dose 0.8 µM), the “cleaved PARP positive nuclei fraction” value amounted to 77.3%.

For `CS(=O)(=O)CCNCc1ccc(-c2ccc3ncnc(Nc4ccc(OCc5cccc(F)c5)c(Cl)c4)c3c2)o1` [lapatinib] + OCc1c[nH]c2ccccc12 [Indole-3-carbinol] (first compound 0.8 µM, partner dose 0.8 µM), the “cleaved PARP positive nuclei fraction” value amounted to 90.6%.

For `C[C@@H](Oc1cc(-c2cnn(C3CCNCC3)c2)cnc1N)c1c(Cl)ccc(F)c1Cl` [Crizotinib] + Nc1ccn([C@@H]2O[C@H](CO)[C@@H](O)C2(F)F)c(=O)n1 [gemcitabine] (first compound 0.2 µM, partner dose 0.0004 µM), the “cleaved PARP positive nuclei fraction” value was determined as 75.7%.

`O=C(O)[C@@H]1[O][Sb](=[O])([O][Sb]2(=[O])[O][C@H]([C@H](O)CO)[C@H](O)[C@H](C(=O)O)[O]2)[O][C@H]([C@H](O)CO)[C@@H]1O` (some centres not stated) [stibogluconate] + COc1ccc(Cl)c(Nc2nc3ccccc3nc2NS(=O)(=O)c2cccc(NC(=O)C(C)(C)N)c2)c1 [XL147] (first compound 2 µM, partner dose 0.8 µM): the “cleaved PARP positive nuclei fraction” value is 178%.

Consider `Cc1cc(Nc2cc(N3CCN(C)CC3)nc(/C=C/c3ccccc3)n2)n[nH]1` + C#Cc1cccc(Nc2ncnc3cc(OCCOC)c(OCCOC)cc23)c1 [erlotinib] (first compound 0.04 µM, partner dose 0.8 µM), for which the “cleaved PARP positive nuclei fraction” value was determined as 284%.

Turning to `Nc1ccn([C@@H]2O[C@H](CO)[C@@H](O)C2(F)F)c(=O)n1` [gemcitabine] + COc1ccc(Cl)c(Nc2nc3ccccc3nc2NS(=O)(=O)c2cccc(NC(=O)C(C)(C)N)c2)c1 [XL147] (first compound 0.0004 µM, partner dose 0.8 µM), the “cleaved PARP positive nuclei fraction” value is 100%.

Take `Cc1cc(Nc2cc(N3CCN(C)CC3)nc(/C=C/c3ccccc3)n2)n[nH]1` + CNC(=O)c1cc(Oc2ccc(NC(=O)Nc3ccc(Cl)c(C(F)(F)F)c3)cc2)ccn1 [sorafenib] (first compound 0.04 µM, partner dose 0.4 µM): the “cleaved PARP positive nuclei fraction” value was found to be 68.4%.
